PubChem BioAssay AID1224830 – NIAID – 2016
The whole screen tested about 18,000 reagents; below is an unselected part. In the full data, about 2,900 (16%) got an active call. 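Calls are made per well; low scores hint the gene aids the LPS response, high scores that it dampens it.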 Repeated entries: four replicate wells of each siRNA pool. Reagent sequences are not shown.

- Assay: 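Host factors that control LPS-induced TNF expression in human macrophages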 (primary screen)
- Cell system: human THP-1 monocytic leukaemia cells, TNF dual-luciferase reporter clone, PMA-differentiated to macrophage-like cells
- Reagent: siRNA pool against human genes, 50 nM
- Time to read-out: LPS for 4 h, given about 3 days after siRNA transfection
- Challenge: bacterial LPS (TLR4 ligand), 10 ng/ml
- Measurement: 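TNF firefly reporter luminescence divided by renilla, normalised to the plate median, then turned into a robust z-score for each replicate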
- Direction: TNF reporter robust z-score: higher = stronger TNF reporter response to LPS
- Call rule: 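Each well counts as active if its z-score is over 2.8 or under -1.5; controls are left without a call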

target	TNF reporter robust z-score	call
TMEM147	-0.99	inactive
TMEM147	-0.02	inactive
TMEM147	-0.94	inactive
TMEM147	0.06	inactive
MYH7B	-1.09	inactive
MYH7B	-0.98	inactive
MYH7B	-0.52	inactive
MYH7B	-0.19	inactive
GTPBP2	0.35	inactive
GTPBP2	1.12	inactive
GTPBP2	0.45	inactive
GTPBP2	1.78	inactive
ABCB11	-0.51	inactive
ABCB11	-1.17	inactive
ABCB11	-0.97	inactive
ABCB11	1.75	inactive
ZNF610	-0.6	inactive
ZNF610	-0.63	inactive
ZNF610	-0.79	inactive
ZNF610	-0.05	inactive
XRCC5	0.49	inactive
XRCC5	1.08	inactive
XRCC5	0.23	inactive
XRCC5	0.78	inactive
LARP4	0.23	inactive
LARP4	0.15	inactive
LARP4	-0.76	inactive
LARP4	-0.01	inactive
SEMA7A	0.36	inactive
SEMA7A	0.19	inactive
SEMA7A	0.35	inactive
SEMA7A	0.28	inactive
ABI3	-0.27	inactive
ABI3	0.2	inactive
ABI3	0.04	inactive
ABI3	0.17	inactive
DMRT1	-0.8	inactive
DMRT1	-0.07	inactive
DMRT1	-0.24	inactive
DMRT1	0.51	inactive
ULBP1	-1.88	active
ULBP1	-1.43	inactive
ULBP1	-1.71	active
ULBP1	-1.23	inactive
FAN1	-0.88	inactive
FAN1	-0.59	inactive
FAN1	-0.57	inactive
FAN1	-0.32	inactive
